{
  "source": "patent US11213494B2",
  "about": "(priority 2016, dated 2022)",
  "tested_on": "Mecp2 Het mice",
  "assay": "Prepulse inhibition (PPI) of the acoustic startle response",
  "assay_type": "in vivo",
  "details": "ketamine 8 mg/kg",
  "experimental": "Prepulse inhibition (PPI) of the acoustic startle response (ASR) was measured to assess sensorimotor gating function using Med Associates Startle Response recording system. Mice were divided into four groups (Het ketamine, Het vehicle, Wt ketamine, Wt vehicle), and received injections of either ketamine (8 mg/kg) or an equivalent amount of saline immediately before they were placed individually inside a small-sized, nonrestrictive, cubical Plexiglas recording chamber [2.5 inches (L)×2.5 inches (W)×1.75 inches (H)] fixed on an accelerometer platform and allowed to acclimate for 5 min. Subsequently, the mouse was exposed to 4 testing blocks. In the first testing block, the initial startle response amplitude was determined by delivering a 40 ms pulse of 120 dB broadband white noise and recording the maximum startle amplitude (Vmax). A baseline startle response was determined by repeating this recording paradigm for six consecutive trials (with 8-23 s between each stimulus) and calculating the average Vmax measured in those trials. […] The Vmax measured from each prepulse-pulse trial was compared with the Vmax measured from the 120 dB pulse-only trials, and a percentage prepulse inhibition (% PPI) was calculated for each prepulse intensity. […]",
  "data": [
    {"molecule": "CNC1(c2ccccc2Cl)CCCCC1=O", "note": "(centres unmarked) [ketamine]", "values": [
      {"measurement": "Startle amplitude (acoustic startle alone)", "setting": "Het mice", "value": "862.7±149.5"},
      {"measurement": "Startle amplitude (acoustic startle alone)", "setting": "Wt mice", "value": "798.6±106.3"}
    ]}
  ]
}
